The target of test [1] is T1, Ninj2 in rat Schwann cells (UniProt Q9JHE8).
T1 sequence: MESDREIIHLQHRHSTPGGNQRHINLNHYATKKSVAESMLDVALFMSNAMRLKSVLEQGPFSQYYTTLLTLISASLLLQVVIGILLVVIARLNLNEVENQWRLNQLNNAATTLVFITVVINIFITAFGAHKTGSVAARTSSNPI
Briefly: co-IP; rat SCs, lysed, antibodies overnight at 4 °C, Protein A Magnetic Beads 2 h at 4 °C.

The chains behind the UniProt entries cited, without tags or fusion partners. Residues count along the entry.
UniProt P09055, residues 21-798: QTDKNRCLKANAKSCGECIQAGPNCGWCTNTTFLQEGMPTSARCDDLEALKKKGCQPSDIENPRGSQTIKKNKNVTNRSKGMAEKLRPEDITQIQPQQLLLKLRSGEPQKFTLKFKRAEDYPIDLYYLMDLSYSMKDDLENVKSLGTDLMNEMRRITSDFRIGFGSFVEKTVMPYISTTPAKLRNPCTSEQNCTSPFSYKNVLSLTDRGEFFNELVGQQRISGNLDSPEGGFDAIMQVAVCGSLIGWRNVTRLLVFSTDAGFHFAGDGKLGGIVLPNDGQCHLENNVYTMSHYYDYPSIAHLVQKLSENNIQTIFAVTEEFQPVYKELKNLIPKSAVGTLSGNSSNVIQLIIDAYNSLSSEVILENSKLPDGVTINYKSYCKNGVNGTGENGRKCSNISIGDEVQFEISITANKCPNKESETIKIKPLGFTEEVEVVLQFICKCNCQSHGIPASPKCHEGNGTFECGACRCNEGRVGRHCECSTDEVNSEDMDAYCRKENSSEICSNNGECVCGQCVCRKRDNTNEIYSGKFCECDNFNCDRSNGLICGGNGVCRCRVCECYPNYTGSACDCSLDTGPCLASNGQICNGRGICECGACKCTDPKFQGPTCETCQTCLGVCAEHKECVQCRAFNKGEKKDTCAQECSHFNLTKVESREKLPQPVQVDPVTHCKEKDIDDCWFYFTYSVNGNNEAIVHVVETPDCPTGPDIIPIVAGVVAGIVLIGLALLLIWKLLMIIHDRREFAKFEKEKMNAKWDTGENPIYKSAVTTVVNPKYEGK
UniProt P49134, residues 21-799: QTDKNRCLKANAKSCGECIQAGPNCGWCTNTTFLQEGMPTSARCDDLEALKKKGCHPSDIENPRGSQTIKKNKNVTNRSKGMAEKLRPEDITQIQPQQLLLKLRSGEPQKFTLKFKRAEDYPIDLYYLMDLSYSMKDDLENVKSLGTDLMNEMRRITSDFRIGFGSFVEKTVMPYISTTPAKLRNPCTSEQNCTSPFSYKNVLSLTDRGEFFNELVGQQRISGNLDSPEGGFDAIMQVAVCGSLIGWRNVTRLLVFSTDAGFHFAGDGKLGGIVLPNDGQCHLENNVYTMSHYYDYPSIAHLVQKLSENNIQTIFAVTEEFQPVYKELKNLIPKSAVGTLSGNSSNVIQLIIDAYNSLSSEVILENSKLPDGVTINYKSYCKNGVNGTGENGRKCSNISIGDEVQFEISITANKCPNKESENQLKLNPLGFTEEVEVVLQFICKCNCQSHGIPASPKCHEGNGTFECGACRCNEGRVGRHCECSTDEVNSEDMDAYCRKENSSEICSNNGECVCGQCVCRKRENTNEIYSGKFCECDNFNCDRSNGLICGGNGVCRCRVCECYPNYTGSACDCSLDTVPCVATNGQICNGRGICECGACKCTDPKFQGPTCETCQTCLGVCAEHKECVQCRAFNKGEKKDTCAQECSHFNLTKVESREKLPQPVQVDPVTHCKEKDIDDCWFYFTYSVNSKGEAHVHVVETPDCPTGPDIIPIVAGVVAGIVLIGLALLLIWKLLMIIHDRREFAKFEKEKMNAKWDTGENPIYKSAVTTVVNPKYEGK

Test [2] concerns the target T2, Ninj2, expressed in HEK293T cells (UniProt Q9JL89).
T2 sequence: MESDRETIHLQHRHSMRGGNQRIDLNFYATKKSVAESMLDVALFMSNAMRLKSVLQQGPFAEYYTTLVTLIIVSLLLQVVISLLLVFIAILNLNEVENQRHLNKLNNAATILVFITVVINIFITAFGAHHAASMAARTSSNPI
Description: co-IP; HEK293T cells transfected with plasmid for 48 h, lysed, anti-HA or FLAG antibodies overnight at 4 °C, Protein A Magnetic Beads 2 h at 4 °C.

Test [3] has as its target ITGB1, overexpressed in S16 cells (UniProt P09055). Briefly: co-IP; S16 cells transduced with control/Itgb1-overexpressing vector alone or with control/Ninj2-overexpressing vector; endogenous laminin detected.

No constants are given. Whether binding was seen depends on the method and setting. Binding seen in cells or lysates may run through a third protein. Some entries that bind do so weakly or less than the wild type. For part of these data: Sequences can lack the tags named with a protein.

Consider “ITGB1 in rat Schwann cells (from UniProt P49134 21-799) (receptor)”, for which the binding result in test [1] was “binds”.

As for “ITGB1, expressed in HEK293T cells (from UniProt P09055 21-798) (receptor)”, the binding entry in test [2] was “binds”.

B1: Nerve injury-induced protein 2 (Ninj2), FLAG-tagged, overexpressed in S16 cells (protein, UniProt Q9JL89 1-143)
chain: T2 sequence
Turning to B1, in test [3], the binding result was “binds”.

Values taken from PMC9691370.
